Drawing on article doi:10.1101/2021.07.18.452865, this text covers binding for 1 substance.

Protein sequences, listed by entry. Tags and fused reporters are not part of them. Lines headed by an entry give the natural chain unless they say otherwise; changes in a name come on top. Residues count along the entry.
UniProt Q13705, 19-512: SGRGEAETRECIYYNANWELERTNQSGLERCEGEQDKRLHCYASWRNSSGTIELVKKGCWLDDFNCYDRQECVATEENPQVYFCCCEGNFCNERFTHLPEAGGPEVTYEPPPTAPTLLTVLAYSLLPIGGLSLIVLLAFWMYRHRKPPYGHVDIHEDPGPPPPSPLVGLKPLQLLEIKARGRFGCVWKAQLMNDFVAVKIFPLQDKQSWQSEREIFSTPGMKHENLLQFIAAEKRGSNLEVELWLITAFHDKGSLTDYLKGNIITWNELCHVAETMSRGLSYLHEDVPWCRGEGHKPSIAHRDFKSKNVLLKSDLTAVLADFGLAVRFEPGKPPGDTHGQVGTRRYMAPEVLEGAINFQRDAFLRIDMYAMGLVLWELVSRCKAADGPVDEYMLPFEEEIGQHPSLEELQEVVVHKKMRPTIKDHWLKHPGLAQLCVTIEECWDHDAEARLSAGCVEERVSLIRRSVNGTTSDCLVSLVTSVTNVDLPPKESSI

Residue numbers refer to the chain shown, from its start. No constants are given. Whether binding was seen depends on the method and setting. In cells and extracts the contact can be indirect. Some binding calls cover weakened binding; strength is not graded here. Sequences can lack the tags named with a protein.

In one test the target is T1, Myc-tagged ACVR1[R206H] (UniProt Q04771).
T1 sequence: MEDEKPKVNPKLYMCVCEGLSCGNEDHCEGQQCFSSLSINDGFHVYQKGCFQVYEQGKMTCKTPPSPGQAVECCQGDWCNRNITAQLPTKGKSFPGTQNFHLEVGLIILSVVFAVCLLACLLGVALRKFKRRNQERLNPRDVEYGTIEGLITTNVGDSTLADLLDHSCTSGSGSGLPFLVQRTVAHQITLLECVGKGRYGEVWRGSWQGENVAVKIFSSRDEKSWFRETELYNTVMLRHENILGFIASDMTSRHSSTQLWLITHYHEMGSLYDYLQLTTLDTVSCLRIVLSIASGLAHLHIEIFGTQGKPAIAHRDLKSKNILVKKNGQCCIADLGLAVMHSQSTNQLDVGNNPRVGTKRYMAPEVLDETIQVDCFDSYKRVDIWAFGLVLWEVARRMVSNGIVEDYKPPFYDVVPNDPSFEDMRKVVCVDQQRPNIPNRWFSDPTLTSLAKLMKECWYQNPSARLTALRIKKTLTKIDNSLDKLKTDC
Kind of test: co-IP.

The target of test [1] is T2, Myc-tagged ACVR1 (Activin A Receptor Type 1), wild type (UniProt Q04771).
T2 sequence: T1 sequence with H186R
Kind of test: co-IP.

On to “HA-tagged ACVR2B (from UniProt Q13705 19-512) (receptor)”, for which the binding entry (in the test with Myc-tagged ACVR1[R206H]; in test [1]) was “binds” in each case.
